In PubChem BioAssay AID1117319 (Southern Research Institute, 2015):
The whole screen tested about 260,000 compounds, of which about 1,500 (0.58%) were called active. Inconclusive results, whose numbers are uncertain, are shown with a selection of clear calls.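 The calls were made as follows: active = inhibition above a set limit at one or more doses, reproduced on every date tested; inconclusive = results disagree between test dates, or hit never tested in dose response; inactive = the rest.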

Amino acid sequences for entries named in this document (tags omitted). A change or cut given only in a name is not applied to a line headed by its entry.
UniProt P69720: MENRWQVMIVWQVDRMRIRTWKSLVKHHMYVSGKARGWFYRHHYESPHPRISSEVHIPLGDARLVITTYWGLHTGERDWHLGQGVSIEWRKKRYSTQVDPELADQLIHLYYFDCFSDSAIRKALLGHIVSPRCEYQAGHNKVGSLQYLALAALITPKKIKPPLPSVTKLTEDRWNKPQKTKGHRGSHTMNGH
UniProt P69721: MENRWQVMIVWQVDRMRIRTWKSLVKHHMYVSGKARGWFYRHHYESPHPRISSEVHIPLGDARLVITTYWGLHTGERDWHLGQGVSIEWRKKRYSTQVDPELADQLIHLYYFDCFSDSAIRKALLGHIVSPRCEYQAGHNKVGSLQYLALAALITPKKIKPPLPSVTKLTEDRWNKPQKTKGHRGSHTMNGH
UniProt P69722: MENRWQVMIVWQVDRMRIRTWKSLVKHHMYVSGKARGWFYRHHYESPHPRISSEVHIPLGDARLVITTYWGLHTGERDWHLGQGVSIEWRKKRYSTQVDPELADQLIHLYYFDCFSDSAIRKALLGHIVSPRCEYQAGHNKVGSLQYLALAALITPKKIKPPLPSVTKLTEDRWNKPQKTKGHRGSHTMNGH
UniProt P69723: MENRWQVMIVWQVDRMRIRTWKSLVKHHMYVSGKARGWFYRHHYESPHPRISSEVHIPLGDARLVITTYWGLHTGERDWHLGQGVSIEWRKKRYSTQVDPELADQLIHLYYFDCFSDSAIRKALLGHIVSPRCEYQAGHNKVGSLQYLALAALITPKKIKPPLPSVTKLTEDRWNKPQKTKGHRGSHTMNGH
UniProt Q9HC16: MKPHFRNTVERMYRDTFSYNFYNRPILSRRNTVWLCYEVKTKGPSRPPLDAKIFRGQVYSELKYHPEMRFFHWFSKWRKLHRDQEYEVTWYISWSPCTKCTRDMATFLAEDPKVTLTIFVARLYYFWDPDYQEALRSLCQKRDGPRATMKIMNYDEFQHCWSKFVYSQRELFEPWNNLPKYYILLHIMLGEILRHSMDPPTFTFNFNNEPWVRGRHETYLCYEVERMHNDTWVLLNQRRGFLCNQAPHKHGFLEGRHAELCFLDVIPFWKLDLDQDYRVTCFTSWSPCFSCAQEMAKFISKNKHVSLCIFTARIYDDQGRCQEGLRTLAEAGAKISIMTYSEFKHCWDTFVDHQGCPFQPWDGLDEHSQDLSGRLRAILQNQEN

These compounds were tested against Virion infectivity factor (Human immunodeficiency virus type 1 group M subtype B (isolate BH10)) + Virion infectivity factor (Human immunodeficiency virus type 1 group M subtype B (isolate BRU/LAI)) + Virion infectivity factor (Human immunodeficiency virus type 1 group M subtype B (isolate PCV12)) + Virion infectivity factor (Human immunodeficiency virus type 1 group M subtype B (isolate HXB2)) + DNA dC->dU-editing enzyme APOBEC-3G (Homo sapiens) (UniProt P69720+P69721+P69722+P69723+Q9HC16) (assay: inhibitors of Vif binding to APOBEC3G peptide, primary screen, biochemical, TR-FRET, GST-Vif 1-94, biotin-A3G peptide, dose response retest (AID 1117319;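 also: Vif residues 1-94 fused to GST binding biotinylated APOBEC3G peptide 110-148; 0% = full assay without inhibitor and 100% = GST in place of GST-Vif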)). Conditions: active compounds read high.

| Compound | inhibition |
| --- | --- |
| CCn1c(=O)c2ccccc2n2c(SCC(=O)N3CCc4ccccc4C3)nnc12 | inconclusive: 56.1% |
| CCN(CC(=O)Nc1c(F)cccc1F)C(=O)c1ccc2c(c1)S(=O)(=O)N=C1CCCCCN12 | inactive: -6.51% |
| Cc1sc2c(c1C)c(=O)n(-c1ccc(F)cc1)c(=O)n2CC(=O)NCc1ccco1 | inactive: -4.06% |
| O=[N+]([O-])/C=C\c1ccc(N2CCCC2)c(F)c1 | inconclusive: 44.3% |
| C=CCN(c1ccccc1)S(=O)(=O)c1ccc(Cl)c(C(=O)OCC(=O)N(C)C2CCS(=O)(=O)C2)c1 (stereo not given) | inconclusive: 38.4% |
| Cc1ccccc1Nc1nc(-c2sc(NC(=O)c3ccc([N+](=O)[O-])cc3)nc2C)cs1 | inconclusive: 42.9% |
| Cc1ccc(S(=O)(=O)C2(C(=O)NCc3ccc4c(c3)OCO4)CC2)cc1 | inconclusive: 47.5% |
| CCC(C)[C@H](NC(=O)Nc1ccccc1F)C(=O)OC (stereo not given in full) | inactive: 85.4% |
| CC(=O)c1sc(NC(=O)c2ccc(F)cc2)nc1-c1ccccc1 | inactive: -5.82% |
| CC(C)(C)c1ccc(-n2nc(C(N)=O)c(O)cc2=O)cc1 | inconclusive: 44.5% |
| Cc1cc(NC(=O)/C=C/c2ccco2)ccc1NC(=O)c1ccccc1 | inactive: 11.7% |
| Cc1cccc(N=CC=C2OC(C)(C)C(C)(C)O2)c1 | inactive: -6.65% |
| CCc1nnc(NC(=O)CSc2nnc(-c3c[nH]c4ccccc34)n2CCOC)s1 | inconclusive: 46.7% |
| Cc1ccc(-c2nc3ccccc3[nH]c2=O)cc1 | inconclusive: 52.3% |
| Cc1ccc(N=Cc2ccc(N(C)C)cc2)cc1 | inconclusive: 50% |
| O=c1nc(-c2ccccc2)cc(-c2ccccc2)[nH]1 | inconclusive: 37.9% |
| O=C1CC(N2CCN(c3ccc(Cl)c(Cl)c3)CC2)C(=O)N1 (stereo not given) | inconclusive: 45.5% |
| CC(NC(=O)COC(=O)/C(=C/c1cccs1)c1cccs1)c1ccccc1 (stereo not given) | inconclusive: 45.7% |
| COc1ccc(-n2c(C)cc(C(=O)CSc3nnc(-c4cccs4)o3)c2C)cc1 | inconclusive: 47.7% |
| CCn1c2ccccc2c2cc(N)ccc21 | inconclusive: 36.1% |
| COc1ccccc1NC(=O)N1CCN(c2ccccc2F)CC1 | inconclusive: 37.4% |
| O=C(CSc1nc(-c2ccccc2)cs1)Nc1cccc([N+](=O)[O-])c1 | inconclusive: 42.5% |
| Cc1ccc(C2=CC(c3cccs3)n3nnnc3N2)cc1 (stereo not given) | inconclusive: 56.7% |
| O=C(Nc1ccncc1)Nc1ccccn1 | inconclusive: 59.1% |
| COc1ccc(/C=N/NC(=O)c2cccc([N+](=O)[O-])c2)cc1O | inconclusive: 49% |

Two neighbouring compounds already listed:

| Compound | inhibition |
| --- | --- |
| Cc1cccc(N=CC=C2OC(C)(C)C(C)(C)O2)c1 | inactive: -6.65% |
| CCc1nnc(NC(=O)CSc2nnc(-c3c[nH]c4ccccc34)n2CCOC)s1 | inconclusive: 46.7% |
